Experimental findings from the supplement of paper PMC12819154, “High-throughput peptide-centric local stability assay extends protein–ligand identification to membrane proteins, tissues and bacteria” (Nature Structural & Molecular Biology, 2025) are described below.

By UniProt entry, the sequences of proteins in these tests, tags left out. Where a name states a change or a piece, a line headed by the entry shows the natural chain unless it says otherwise.
UniProt P62253: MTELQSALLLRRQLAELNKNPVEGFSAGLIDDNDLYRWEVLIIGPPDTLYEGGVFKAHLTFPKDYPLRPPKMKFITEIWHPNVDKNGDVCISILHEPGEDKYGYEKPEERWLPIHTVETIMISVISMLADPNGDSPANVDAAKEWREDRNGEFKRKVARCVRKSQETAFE
UniProt P61020: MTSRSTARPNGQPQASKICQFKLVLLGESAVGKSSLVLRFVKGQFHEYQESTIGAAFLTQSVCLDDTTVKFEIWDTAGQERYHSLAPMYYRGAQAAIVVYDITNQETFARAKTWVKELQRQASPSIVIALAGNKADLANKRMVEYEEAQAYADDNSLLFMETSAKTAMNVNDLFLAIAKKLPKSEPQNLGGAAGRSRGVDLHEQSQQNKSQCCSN
UniProt P55786: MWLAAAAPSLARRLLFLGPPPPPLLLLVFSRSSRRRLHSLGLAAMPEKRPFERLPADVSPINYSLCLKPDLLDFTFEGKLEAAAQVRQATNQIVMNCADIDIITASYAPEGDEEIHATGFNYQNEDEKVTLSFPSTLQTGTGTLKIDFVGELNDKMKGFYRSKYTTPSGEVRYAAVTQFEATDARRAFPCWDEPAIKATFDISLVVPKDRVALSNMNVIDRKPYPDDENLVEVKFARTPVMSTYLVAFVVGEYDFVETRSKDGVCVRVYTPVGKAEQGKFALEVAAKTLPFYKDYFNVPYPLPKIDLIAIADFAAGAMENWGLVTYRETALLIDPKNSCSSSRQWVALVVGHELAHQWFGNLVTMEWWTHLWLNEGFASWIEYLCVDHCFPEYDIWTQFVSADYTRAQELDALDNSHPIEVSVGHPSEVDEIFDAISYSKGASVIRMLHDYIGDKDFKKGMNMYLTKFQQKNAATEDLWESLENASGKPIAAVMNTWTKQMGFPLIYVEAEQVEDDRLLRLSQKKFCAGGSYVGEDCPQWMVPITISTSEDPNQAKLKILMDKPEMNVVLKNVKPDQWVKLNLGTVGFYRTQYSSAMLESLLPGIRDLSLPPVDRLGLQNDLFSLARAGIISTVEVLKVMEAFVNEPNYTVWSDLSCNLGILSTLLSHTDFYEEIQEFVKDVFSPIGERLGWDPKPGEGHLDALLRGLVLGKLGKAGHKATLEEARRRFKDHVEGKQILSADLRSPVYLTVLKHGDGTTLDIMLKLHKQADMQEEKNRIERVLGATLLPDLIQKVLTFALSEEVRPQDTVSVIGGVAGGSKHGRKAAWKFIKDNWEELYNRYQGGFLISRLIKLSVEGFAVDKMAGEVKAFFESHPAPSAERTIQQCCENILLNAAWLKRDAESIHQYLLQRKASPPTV
UniProt P57081: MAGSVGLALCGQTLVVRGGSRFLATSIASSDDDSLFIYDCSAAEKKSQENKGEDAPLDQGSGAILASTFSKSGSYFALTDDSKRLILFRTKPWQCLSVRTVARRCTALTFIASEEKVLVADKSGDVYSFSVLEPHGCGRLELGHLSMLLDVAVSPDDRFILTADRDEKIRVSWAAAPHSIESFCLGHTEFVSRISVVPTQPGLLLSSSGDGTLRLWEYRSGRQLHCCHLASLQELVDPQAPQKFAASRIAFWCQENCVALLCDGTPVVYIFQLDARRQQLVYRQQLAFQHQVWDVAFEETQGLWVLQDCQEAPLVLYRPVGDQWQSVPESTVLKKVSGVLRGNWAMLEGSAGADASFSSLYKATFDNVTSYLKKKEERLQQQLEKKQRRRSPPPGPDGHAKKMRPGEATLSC
UniProt P78411: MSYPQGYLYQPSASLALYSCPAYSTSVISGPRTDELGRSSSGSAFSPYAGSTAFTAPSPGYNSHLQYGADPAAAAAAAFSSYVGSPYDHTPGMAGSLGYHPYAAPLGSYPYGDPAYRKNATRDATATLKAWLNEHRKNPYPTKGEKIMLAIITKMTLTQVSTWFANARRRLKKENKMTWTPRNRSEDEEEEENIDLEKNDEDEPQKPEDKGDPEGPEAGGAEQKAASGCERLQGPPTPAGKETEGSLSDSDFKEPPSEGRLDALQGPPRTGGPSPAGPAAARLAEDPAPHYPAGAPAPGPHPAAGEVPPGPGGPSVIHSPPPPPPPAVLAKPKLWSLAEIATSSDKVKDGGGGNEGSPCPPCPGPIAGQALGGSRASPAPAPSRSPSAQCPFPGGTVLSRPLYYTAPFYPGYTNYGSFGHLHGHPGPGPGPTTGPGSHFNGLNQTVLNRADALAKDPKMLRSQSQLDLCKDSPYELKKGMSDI
UniProt P62256: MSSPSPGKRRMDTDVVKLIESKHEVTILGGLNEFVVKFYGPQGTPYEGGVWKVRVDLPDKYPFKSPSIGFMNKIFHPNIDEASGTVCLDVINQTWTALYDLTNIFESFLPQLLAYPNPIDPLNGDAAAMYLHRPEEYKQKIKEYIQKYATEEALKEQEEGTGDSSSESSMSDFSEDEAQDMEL
UniProt P83111: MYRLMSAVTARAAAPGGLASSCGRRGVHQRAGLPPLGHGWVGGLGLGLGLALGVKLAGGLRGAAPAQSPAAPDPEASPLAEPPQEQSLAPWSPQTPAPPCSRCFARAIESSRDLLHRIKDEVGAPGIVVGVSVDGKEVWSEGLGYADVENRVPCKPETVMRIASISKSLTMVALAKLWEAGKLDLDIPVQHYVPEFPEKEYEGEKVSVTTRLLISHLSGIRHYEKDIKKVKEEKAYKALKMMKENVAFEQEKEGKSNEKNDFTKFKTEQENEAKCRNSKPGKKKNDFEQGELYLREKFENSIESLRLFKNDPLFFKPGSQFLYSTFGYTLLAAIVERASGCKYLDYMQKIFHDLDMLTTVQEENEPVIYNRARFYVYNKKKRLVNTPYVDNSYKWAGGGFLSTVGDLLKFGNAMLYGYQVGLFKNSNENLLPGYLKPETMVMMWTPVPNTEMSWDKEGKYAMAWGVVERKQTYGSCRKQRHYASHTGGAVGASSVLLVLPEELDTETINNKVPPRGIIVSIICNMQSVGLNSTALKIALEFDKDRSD

This is one part of the list. Small differences around the control level are noise.

Compound in this assay: CN[C@@H]1C[C@H]2O[C@@](C)([C@@H]1OC)n1c3ccccc3c3c4c(c5c6ccccc6n2c5c31)C(=O)NC4 [staurosporine]
As to the kind of experiment: log2 fold change of tryptic peptide abundance, ligand vs vehicle (limited proteolysis) (log2 ratio); higher = more trypsin-susceptible (destabilized). To be noted: ligand concentration: 20 uM; sample: K562 cleared lysate; digestion: 4 min, 22 C (HT-PELSA RT4min, Orbitrap Astral).
As to “UniProt P62253 (peptide sequence: AHLTFPKDYPLRPPK, peptide start residue: 57)”, the log2 fold change was -0.13.
Then “UniProt P61020 (peptide sequence: GVDLHEQSQQNK, peptide start residue: 198)”, with -0.0828; and “NPEPPS (peptide sequence: SPVYLTVLK, peptide start residue: 745) (UniProt P55786)”, with 0.216; and “WDR4 (peptide sequence: VSWAAAPHSIESFCLGHTEFVSR, peptide start residue: 171) (UniProt P57081)”, with -0.232.
Take “UniProt P78411 (peptide sequence: TGGPSPAGPAAAR, peptide start residue: 270)”: the log2 fold change was -0.11.
On to “UniProt P62256 (peptide sequence: SPSIGFMNK, peptide start residue: 65)”, for which the log2 fold change turned out to be 0.409.
For “LACTB (peptide sequence: FKTEQENEAK, peptide start residue: 265) (UniProt P83111)” the value was -0.717.
